Laboratory results reported in US20130129763A1 (ARNE FORSGREN, published 2013).

Protein sequences, listed by entry. Tags and fused reporters are not part of them. Residues count along the entry.
UniProt P19137, 25-3083 limits assumed, chain 1 of 3: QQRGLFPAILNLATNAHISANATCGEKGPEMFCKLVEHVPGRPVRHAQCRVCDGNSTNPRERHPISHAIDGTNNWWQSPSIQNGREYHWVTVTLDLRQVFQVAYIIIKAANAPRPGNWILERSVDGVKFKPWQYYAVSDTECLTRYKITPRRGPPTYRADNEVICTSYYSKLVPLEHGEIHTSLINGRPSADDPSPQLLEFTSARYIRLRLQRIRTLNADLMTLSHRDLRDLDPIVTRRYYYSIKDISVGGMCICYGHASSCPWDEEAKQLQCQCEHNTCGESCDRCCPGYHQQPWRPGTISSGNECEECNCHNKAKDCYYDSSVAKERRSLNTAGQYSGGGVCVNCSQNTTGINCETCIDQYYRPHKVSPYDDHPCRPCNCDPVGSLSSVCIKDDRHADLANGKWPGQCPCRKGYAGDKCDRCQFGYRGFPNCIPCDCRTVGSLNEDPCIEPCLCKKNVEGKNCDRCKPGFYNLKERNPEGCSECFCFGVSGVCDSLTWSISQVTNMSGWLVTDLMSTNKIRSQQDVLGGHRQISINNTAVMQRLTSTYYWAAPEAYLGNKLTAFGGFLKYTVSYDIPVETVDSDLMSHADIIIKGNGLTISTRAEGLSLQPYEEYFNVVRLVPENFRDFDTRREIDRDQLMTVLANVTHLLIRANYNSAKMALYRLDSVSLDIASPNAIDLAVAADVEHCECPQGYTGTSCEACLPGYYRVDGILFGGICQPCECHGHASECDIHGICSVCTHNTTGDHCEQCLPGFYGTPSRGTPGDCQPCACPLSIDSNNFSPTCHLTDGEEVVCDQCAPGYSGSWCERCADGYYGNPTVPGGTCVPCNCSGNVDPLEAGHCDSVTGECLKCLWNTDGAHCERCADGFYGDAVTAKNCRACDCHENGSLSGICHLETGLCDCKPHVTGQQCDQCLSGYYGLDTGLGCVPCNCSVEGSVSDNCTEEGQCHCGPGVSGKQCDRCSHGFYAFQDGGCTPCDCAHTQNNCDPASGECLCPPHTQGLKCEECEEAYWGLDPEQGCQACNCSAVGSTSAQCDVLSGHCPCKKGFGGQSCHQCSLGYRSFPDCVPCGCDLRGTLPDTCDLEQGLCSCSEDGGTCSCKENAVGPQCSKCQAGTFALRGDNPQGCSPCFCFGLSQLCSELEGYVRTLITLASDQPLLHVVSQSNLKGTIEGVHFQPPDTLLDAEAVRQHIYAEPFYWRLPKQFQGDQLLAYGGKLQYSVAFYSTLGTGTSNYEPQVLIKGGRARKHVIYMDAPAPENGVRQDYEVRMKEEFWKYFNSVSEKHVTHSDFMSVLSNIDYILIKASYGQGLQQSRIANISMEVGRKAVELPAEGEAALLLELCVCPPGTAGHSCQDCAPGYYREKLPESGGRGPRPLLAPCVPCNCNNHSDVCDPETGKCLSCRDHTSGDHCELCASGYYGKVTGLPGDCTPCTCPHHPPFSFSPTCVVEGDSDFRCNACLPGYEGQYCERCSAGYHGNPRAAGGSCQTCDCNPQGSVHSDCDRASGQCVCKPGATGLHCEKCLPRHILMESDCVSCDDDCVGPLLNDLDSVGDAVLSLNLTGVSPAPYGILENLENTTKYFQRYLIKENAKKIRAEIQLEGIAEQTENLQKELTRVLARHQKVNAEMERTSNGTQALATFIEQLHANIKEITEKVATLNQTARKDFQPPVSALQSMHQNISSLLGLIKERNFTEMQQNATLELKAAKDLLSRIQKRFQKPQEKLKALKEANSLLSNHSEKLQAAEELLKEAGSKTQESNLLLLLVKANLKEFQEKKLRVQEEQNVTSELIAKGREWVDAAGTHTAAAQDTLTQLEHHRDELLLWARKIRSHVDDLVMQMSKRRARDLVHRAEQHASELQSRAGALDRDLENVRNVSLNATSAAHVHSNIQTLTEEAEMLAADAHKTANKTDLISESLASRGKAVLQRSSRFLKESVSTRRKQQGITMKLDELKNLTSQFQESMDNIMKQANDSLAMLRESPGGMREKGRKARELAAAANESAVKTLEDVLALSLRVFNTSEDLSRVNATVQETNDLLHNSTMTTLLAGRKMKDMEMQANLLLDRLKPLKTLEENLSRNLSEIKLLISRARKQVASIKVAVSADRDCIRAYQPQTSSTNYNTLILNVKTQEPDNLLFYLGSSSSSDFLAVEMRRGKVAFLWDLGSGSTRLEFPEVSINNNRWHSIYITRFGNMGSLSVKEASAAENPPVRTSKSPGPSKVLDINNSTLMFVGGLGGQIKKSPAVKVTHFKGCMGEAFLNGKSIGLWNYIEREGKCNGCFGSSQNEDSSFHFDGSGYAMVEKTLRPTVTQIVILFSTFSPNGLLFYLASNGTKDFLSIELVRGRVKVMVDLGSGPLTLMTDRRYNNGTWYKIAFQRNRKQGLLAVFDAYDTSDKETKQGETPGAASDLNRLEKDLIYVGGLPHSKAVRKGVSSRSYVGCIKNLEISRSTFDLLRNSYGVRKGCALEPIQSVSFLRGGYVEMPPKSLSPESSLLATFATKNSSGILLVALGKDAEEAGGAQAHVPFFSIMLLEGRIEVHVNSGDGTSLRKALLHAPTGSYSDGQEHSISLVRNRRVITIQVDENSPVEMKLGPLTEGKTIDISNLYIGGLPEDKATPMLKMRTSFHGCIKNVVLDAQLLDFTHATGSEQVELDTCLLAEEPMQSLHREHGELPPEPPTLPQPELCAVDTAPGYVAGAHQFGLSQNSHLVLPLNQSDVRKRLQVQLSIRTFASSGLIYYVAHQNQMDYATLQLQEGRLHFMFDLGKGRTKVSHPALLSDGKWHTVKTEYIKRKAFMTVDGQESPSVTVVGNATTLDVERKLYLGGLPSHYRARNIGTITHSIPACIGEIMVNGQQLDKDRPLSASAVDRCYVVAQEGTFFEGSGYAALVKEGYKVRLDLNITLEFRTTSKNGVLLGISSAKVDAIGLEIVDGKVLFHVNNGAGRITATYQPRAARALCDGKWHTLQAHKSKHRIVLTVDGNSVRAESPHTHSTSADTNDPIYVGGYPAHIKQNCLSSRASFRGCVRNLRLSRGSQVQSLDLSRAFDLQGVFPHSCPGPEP
Engelbreth-Holm-Swarm mouse sarcoma laminin (Sigma), UniProt P02469, 22-1786 limits assumed, chain 2 of 3: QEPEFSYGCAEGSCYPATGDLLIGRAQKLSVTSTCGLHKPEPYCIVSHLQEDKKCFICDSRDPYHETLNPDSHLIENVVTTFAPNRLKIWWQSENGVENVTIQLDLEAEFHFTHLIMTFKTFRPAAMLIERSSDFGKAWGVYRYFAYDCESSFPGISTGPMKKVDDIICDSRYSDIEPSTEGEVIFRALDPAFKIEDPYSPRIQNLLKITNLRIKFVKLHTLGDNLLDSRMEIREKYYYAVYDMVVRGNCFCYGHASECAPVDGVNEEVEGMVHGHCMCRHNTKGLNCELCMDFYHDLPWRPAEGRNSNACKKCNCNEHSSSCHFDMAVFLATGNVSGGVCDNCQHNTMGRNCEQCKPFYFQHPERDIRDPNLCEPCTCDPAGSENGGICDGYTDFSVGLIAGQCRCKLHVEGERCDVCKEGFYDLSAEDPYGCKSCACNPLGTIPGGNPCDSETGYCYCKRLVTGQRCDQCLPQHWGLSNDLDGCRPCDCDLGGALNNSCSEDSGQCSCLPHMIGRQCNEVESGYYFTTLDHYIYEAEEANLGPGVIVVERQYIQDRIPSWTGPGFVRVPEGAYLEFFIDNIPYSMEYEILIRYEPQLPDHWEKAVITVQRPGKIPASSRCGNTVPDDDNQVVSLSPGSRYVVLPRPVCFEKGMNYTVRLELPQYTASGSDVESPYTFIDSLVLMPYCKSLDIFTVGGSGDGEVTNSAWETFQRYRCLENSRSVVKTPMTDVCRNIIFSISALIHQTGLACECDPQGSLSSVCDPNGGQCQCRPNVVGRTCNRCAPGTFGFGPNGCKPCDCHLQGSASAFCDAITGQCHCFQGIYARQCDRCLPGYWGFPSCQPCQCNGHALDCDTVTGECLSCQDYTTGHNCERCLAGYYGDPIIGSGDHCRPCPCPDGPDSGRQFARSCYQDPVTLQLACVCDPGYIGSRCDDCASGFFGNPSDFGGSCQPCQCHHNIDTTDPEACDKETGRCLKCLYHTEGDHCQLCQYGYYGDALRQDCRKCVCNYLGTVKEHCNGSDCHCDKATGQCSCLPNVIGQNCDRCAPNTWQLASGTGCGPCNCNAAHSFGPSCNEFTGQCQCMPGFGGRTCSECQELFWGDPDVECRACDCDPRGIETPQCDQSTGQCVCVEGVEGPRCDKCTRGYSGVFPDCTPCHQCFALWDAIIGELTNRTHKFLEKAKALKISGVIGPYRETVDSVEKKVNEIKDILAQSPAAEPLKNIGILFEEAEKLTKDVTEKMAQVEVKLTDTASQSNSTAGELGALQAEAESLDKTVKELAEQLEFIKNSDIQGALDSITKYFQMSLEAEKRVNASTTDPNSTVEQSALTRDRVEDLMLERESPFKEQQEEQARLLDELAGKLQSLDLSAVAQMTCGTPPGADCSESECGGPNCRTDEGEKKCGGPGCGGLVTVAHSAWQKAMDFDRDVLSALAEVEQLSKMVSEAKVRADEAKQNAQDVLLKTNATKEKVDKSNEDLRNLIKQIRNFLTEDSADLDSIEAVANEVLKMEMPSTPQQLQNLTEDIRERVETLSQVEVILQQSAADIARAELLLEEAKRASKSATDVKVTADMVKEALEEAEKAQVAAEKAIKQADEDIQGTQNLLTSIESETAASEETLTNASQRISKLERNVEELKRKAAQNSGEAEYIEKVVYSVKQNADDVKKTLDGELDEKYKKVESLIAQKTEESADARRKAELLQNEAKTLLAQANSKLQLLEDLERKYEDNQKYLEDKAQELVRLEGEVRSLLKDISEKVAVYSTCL
Engelbreth-Holm-Swarm mouse sarcoma laminin (Sigma), UniProt P02468, 34-1607 limits assumed, chain 3 of 3: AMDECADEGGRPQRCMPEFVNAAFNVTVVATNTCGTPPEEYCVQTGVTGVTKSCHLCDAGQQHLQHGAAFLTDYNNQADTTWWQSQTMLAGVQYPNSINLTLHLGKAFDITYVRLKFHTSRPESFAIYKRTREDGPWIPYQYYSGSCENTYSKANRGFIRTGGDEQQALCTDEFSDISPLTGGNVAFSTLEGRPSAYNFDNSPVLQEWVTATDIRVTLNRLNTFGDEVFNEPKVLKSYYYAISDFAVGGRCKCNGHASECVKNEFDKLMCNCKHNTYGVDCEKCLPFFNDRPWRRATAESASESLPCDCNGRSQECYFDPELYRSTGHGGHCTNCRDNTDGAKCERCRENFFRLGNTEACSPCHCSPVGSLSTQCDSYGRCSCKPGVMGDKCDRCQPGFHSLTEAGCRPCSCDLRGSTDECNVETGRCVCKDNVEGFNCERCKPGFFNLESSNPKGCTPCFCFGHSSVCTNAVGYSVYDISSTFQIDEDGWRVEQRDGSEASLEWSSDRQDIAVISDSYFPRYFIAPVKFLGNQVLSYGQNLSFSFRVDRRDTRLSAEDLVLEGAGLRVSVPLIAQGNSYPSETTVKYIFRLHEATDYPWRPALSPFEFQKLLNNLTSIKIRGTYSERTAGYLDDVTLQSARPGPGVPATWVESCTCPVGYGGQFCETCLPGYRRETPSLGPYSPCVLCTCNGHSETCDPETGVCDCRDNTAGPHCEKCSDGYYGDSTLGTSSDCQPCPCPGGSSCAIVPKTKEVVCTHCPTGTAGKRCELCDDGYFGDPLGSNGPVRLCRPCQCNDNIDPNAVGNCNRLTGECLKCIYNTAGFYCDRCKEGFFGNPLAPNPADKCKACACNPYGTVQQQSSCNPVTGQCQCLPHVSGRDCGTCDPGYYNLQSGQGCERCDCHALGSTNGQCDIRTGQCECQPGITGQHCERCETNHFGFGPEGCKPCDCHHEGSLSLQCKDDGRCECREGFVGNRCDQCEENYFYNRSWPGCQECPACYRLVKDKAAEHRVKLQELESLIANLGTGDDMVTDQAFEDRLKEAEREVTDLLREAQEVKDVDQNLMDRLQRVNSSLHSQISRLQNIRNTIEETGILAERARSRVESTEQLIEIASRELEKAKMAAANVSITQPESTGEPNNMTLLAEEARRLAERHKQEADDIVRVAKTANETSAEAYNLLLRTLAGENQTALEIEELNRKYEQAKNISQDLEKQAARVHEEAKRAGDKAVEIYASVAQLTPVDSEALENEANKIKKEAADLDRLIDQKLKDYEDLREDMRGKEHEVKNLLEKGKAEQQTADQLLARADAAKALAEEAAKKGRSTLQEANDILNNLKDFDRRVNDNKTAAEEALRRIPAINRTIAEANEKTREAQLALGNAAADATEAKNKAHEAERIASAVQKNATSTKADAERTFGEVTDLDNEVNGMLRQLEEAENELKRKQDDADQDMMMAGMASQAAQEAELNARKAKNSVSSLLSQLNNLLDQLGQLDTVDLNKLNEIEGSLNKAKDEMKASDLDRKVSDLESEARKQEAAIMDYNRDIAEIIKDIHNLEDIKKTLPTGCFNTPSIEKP

Biological target: T1, Engelbreth-Holm-Swarm mouse sarcoma laminin (Sigma) (mouse, UniProt P19137 25-3083; P02469 22-1786; P02468 34-1607)
T1 construct: also called soluble laminin
Experiment: ELISA: 40 nM protein coated, laminin 20 µg/ml, rabbit anti-laminin pAb + HRP anti-rabbit pAb

B1: recombinant UspA1^299-452 (other)
chain: KTGNGTVSVGKKGKERQIVHVGAGEISDTSTDAVNGSQLHVLATVVAQNKADIKDLDDEVGLLGEEINSLEGEIFNNQDAIAKNQADIKTLESNVEEGLLDLSGRLLDQKADIDNNINNIYELAQQQDQHSSDIKTLKNNVEEGLLDLSGRLID
B1: no binding.
